Taken from: PubChem BioAssay AID1259405 (NCATS, 2018)

Assay: 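Mouse-designed siRNAs used to find CHO productivity engineering targets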 (primary screen)
System: Chinese hamster CHO-K1 ovary cells with stable secreted eGFP expression
Reagents: single siRNA against mouse genes, 0.8 pmol siRNA per well (2 µl of 400 nM stock)
Time to read-out: 3 days
Read-out: 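Percent of the per-plate non-targeting control median for intracellular GFP per well by laser scanning cytometry and for cell viability by ATP luminescence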
Direction: GFP, % of control: higher = more GFP per well, higher productivity; viability (ATP), % of control: higher = more viable cells (more ATP)
Rule for the call: 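a knock-down is called active if GFP reaches 120% or more of non-targeting control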
In all, the deposit lists about 50,000 reagents; this is an unselected part. About 4,000 of all reagents (8%) were called active. 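Mouse siRNA library applied to hamster cells; one well for each siRNA.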 Reagents against one gene are numbered here.

| gene | siRNA no. | GFP, % of control | viability (ATP), % of control | call |
| --- | --- | --- | --- | --- |
| Hspa1l (GeneID 15482) | 1 | 103 | 60.8 | inactive |
| Hspa1l (GeneID 15482) | 2 | 82.4 | 79.3 | inactive |
| Hspa1l (GeneID 15482) | 3 | 101 | 113 | inactive |
| Chrnb1 (GeneID 11443) | 1 | 101 | 83.3 | inactive |
| Chrnb1 (GeneID 11443) | 2 | 123 | 106 | active |
| Chrnb1 (GeneID 11443) | 3 | 72.7 | 66.6 | inactive |
| Vti1b (GeneID 53612) | 1 | 107 | 88.9 | inactive |
| Vti1b (GeneID 53612) | 2 | 106 | 76.1 | inactive |
| Vti1b (GeneID 53612) | 3 | 79.1 | 67.7 | inactive |
| Gucy2f (GeneID 245650) | 1 | 90.8 | 106 | inactive |
| Gucy2f (GeneID 245650) | 2 | 82.4 | 89.3 | inactive |
| Gucy2f (GeneID 245650) | 3 | 65.4 | 69.7 | inactive |
| Zfp1006 (GeneID 72139) | 1 | 96.7 | 67.7 | inactive |
| Zfp1006 (GeneID 72139) | 2 | 53.6 | 68.2 | inactive |
| Zfp1006 (GeneID 72139) | 3 | 85.7 | 72.8 | inactive |
| Vmn1r213 (GeneID 171249) | 1 | 68.8 | 67.5 | inactive |
| Vmn1r213 (GeneID 171249) | 2 | 83 | 101 | inactive |
| Vmn1r213 (GeneID 171249) | 3 | 42.3 | 46.4 | inactive |
| Igbp1 (GeneID 18518) | 1 | 63.6 | 80.4 | inactive |
| Igbp1 (GeneID 18518) | 2 | 99.8 | 67.7 | inactive |
| Igbp1 (GeneID 18518) | 3 | 135 | 64.4 | active |
| Yipf3 (GeneID 28064) | 1 | 54.3 | 57.3 | inactive |
| Yipf3 (GeneID 28064) | 2 | 107 | 96 | inactive |
| Yipf3 (GeneID 28064) | 3 | 61.4 | 53.8 | inactive |
| Eaf1 (GeneID 74427) | 1 | 84.8 | 94.4 | inactive |
| Eaf1 (GeneID 74427) | 2 | 75 | 65.5 | inactive |
| Gk2 (GeneID 14626) | 1 | 72.9 | 47.6 | inactive |
| Dcp1a (GeneID 75901) | 1 | 72.2 | 87.2 | inactive |
| Dcp1a (GeneID 75901) | 2 | 114 | 80.3 | inactive |
| Rev1 (GeneID 56210) | 1 | 64.9 | 80.2 | inactive |
| Rev1 (GeneID 56210) | 2 | 71 | 59.5 | inactive |
| Rev1 (GeneID 56210) | 3 | 64.6 | 56 | inactive |

Records above whose gene name starts with V or v:
| gene | siRNA no. | GFP, % of control | viability (ATP), % of control | call |
| --- | --- | --- | --- | --- |
| Vti1b (GeneID 53612) | 1 | 107 | 88.9 | inactive |
| Vti1b (GeneID 53612) | 2 | 106 | 76.1 | inactive |
| Vti1b (GeneID 53612) | 3 | 79.1 | 67.7 | inactive |
| Vmn1r213 (GeneID 171249) | 1 | 68.8 | 67.5 | inactive |
| Vmn1r213 (GeneID 171249) | 2 | 83 | 101 | inactive |
| Vmn1r213 (GeneID 171249) | 3 | 42.3 | 46.4 | inactive |

Additional records follow.
| gene | siRNA no. | GFP, % of control | viability (ATP), % of control | call |
| --- | --- | --- | --- | --- |
| Eps8l1 (GeneID 67425) | 1 | 74.3 | 70.5 | inactive |
| Eps8l1 (GeneID 67425) | 2 | 55.5 | 64.9 | inactive |
| Eps8l1 (GeneID 67425) | 3 | 78.3 | 118 | inactive |
| Lkaaear1 (GeneID 277496) | 1 | 65 | 63.2 | inactive |
| Lkaaear1 (GeneID 277496) | 2 | 67 | 71.2 | inactive |
| Lkaaear1 (GeneID 277496) | 3 | 62.1 | 80.4 | inactive |
| Trerf1 (GeneID 224829) | 1 | 84.1 | 85.8 | inactive |
| Trerf1 (GeneID 224829) | 2 | 59.6 | 77.3 | inactive |
| Trerf1 (GeneID 224829) | 3 | 65.9 | 45 | inactive |
| Hnrnpm (GeneID 76936) | 1 | 63.5 | 77.8 | inactive |
| Hnrnpm (GeneID 76936) | 2 | 141 | 72.7 | active |
| Hnrnpm (GeneID 76936) | 3 | 69.8 | 55 | inactive |
| Atrx (GeneID 22589) | 1 | 104 | 120 | inactive |
| Atrx (GeneID 22589) | 2 | 78.7 | 51.8 | inactive |
| Atrx (GeneID 22589) | 3 | 108 | 87.9 | inactive |
| Skint2 (GeneID 329919) | 1 | 76.8 | 88.9 | inactive |
| Skint2 (GeneID 329919) | 2 | 131 | 78.9 | active |
| Skint2 (GeneID 329919) | 3 | 71 | 91.2 | inactive |
| Fndc3b (GeneID 72007) | 1 | 91 | 78.1 | inactive |
| Fndc3b (GeneID 72007) | 2 | 104 | 105 | inactive |
| Fndc3b (GeneID 72007) | 3 | 87.9 | 67.3 | inactive |
| Adgrg2 (GeneID 237175) | 1 | 116 | 63.4 | inactive |
| Adgrg2 (GeneID 237175) | 2 | 94.1 | 82.5 | inactive |
| Adgrg2 (GeneID 237175) | 3 | 99.1 | 74.7 | inactive |
| Spin1 (GeneID 20729) | 1 | 73.3 | 57.3 | inactive |
| Spin1 (GeneID 20729) | 2 | 104 | 164 | inactive |
| Spin1 (GeneID 20729) | 3 | 123 | 128 | active |
| Cyb5r2 (GeneID 320635) | 1 | 78.5 | 73.2 | inactive |
| Cyb5r2 (GeneID 320635) | 2 | 68 | 87.8 | inactive |
| Cyb5r2 (GeneID 320635) | 3 | 101 | 63.7 | inactive |
| Tmbim4 (GeneID 68212) | 1 | 64.5 | 72.9 | inactive |
| Tmbim4 (GeneID 68212) | 2 | 57.6 | 89.3 | inactive |
| Tmbim4 (GeneID 68212) | 3 | 69.5 | 55.5 | inactive |
| B230354K17Rik (GeneID 105246278) | 1 | 101 | 75.6 | inactive |
| B230354K17Rik (GeneID 105246278) | 2 | 50.8 | 54.1 | inactive |
| B230354K17Rik (GeneID 105246278) | 3 | 106 | 102 | inactive |
| Appl2 (GeneID 216190) | 1 | 64.9 | 80.7 | inactive |
| Appl2 (GeneID 216190) | 2 | 87.1 | 77.2 | inactive |
| Appl2 (GeneID 216190) | 3 | 116 | 90.9 | inactive |
| Fbxo2 (GeneID 230904) | 1 | 61.7 | 67.1 | inactive |
| Fbxo2 (GeneID 230904) | 2 | 91.6 | 78.1 | inactive |
| Fbxo2 (GeneID 230904) | 3 | 50.1 | 66.6 | inactive |
| Or52b2 (GeneID 259063) | 1 | 94.6 | 71.4 | inactive |
| Or52b2 (GeneID 259063) | 2 | 95 | 53.6 | inactive |
| Or52b2 (GeneID 259063) | 3 | 65.3 | 74.2 | inactive |
| Sarnp (GeneID 66118) | 1 | 90.4 | 64.7 | inactive |
| Sarnp (GeneID 66118) | 2 | 76 | 82.4 | inactive |
| Sarnp (GeneID 66118) | 3 | 31.4 | 16.7 | inactive |
| Syn3 (GeneID 27204) | 1 | 82.2 | 70.9 | inactive |
| Syn3 (GeneID 27204) | 2 | 78.5 | 77.4 | inactive |
| Cd24a (GeneID 12484) | 1 | 112 | 108 | inactive |
| Cd24a (GeneID 12484) | 2 | 75.6 | 81.6 | inactive |
| Cd24a (GeneID 12484) | 3 | 95.5 | 98.1 | inactive |
